Record: PubChem BioAssay AID743121 (NCATS, 2013)
The deposit covers about 26,000 reagents; shown is a part drawn at random. 167 of them (0.63%) count as active. 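Calls are per gene from RSA p-values that are not deposited; an individual active-marked siRNA can sensitise only weakly.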 Entries without a mark were called inactive. Reagents against one gene are numbered here. Not all columns of the deposit are shown.

Aim: 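Partners whose loss is lethal together with topoisomerase I blockade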 (primary screen)
Cell system: MDA-MB-231 cells, a human breast cancer line
Reagents: single siRNA against human genes, 20 nM siRNA (0.8 pmol per well)
Timing: 120 h (drug added 48 h after transfection, read 72 h later)
Conditions: camptothecin 20 nM (about EC30) for 72 h; vehicle 0.1% DMSO in parallel plates
Measurement: 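Cell viability by ATP luminescence (CellTiter-Glo) as % of non-targeting siRNA wells, and the log2 ratio of viability without drug over viability with camptothecin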
Reading the numbers: log2 vehicle/camptothecin viability: higher = stronger sensitisation to camptothecin; viability with camptothecin: higher = more viable cells
Rule for the call: 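Active genes have an RSA gene-level p-value below 0.001, computed from the ratios of their separate siRNAs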

| Gene | reagent | log2 vehicle/camptothecin viability | viability with camptothecin (% of control) |
| --- | --- | --- | --- |
| CYP26B1 (GeneID 56603) | 1 | 0.634 (active) | 57.4 |
| CYP26B1 (GeneID 56603) | 2 | -0.254 (active) | 58.3 |
| CYP26B1 (GeneID 56603) | 3 | 2.42 (active) | 10.2 |
| CYP26B1 (GeneID 56603) | 4 | -0.0651 (active) | 101 |
| TNFRSF18 (GeneID 8784) | 1 | -0.158 | 29.2 |
| TNFRSF18 (GeneID 8784) | 2 | 0.293 | 33.6 |
| TNFRSF18 (GeneID 8784) | 3 | -0.463 | 51.6 |
| TNFRSF18 (GeneID 8784) | 4 | -0.204 | 108 |
| SOCS2 (GeneID 8835) | 1 | -0.411 | 72.9 |
| SOCS2 (GeneID 8835) | 2 | -0.352 | 113 |
| SOCS2 (GeneID 8835) | 3 | -0.135 | 97.3 |
| SOCS2 (GeneID 8835) | 4 | -0.182 | 54.4 |
| ETNPPL (GeneID 64850) | 1 | -0.0294 | 100 |
| ETNPPL (GeneID 64850) | 2 | -0.131 | 73.7 |
| ETNPPL (GeneID 64850) | 3 | -0.441 | 70.3 |
| ETNPPL (GeneID 64850) | 4 | -0.0676 | 99.4 |
| OLFM2 (GeneID 93145) | 1 | -0.0833 | 84.9 |
| OLFM2 (GeneID 93145) | 2 | 0.0633 | 93.8 |
| OLFM2 (GeneID 93145) | 3 | -0.386 | 50.4 |
| OLFM2 (GeneID 93145) | 4 | -0.0983 | 61 |
| GRK1 (GeneID 6011) | 1 | -0.0837 | 75.4 |
| GRK1 (GeneID 6011) | 2 | -0.191 | 68.2 |
| GRK1 (GeneID 6011) | 3 | -0.2 | 72.7 |
| GRK1 (GeneID 6011) | 4 | -0.278 | 114 |
| TSSK3 (GeneID 81629) | 1 | -0.127 | 86.8 |
| TSSK3 (GeneID 81629) | 2 | -0.238 | 88.4 |
| TSSK3 (GeneID 81629) | 3 | 0.27 | 44.7 |
| TSSK3 (GeneID 81629) | 4 | -0.193 | 80.1 |
| GANAB (GeneID 23193) | 1 | -0.233 | 91.4 |
| GANAB (GeneID 23193) | 2 | 0.476 | 66.5 |
| GANAB (GeneID 23193) | 3 | -0.319 | 78.1 |
| GANAB (GeneID 23193) | 4 | -0.177 | 92.7 |
| CDX4 (GeneID 1046) | 1 | -0.0518 | 92.4 |
| CDX4 (GeneID 1046) | 2 | 0.0474 | 102 |
| CDX4 (GeneID 1046) | 3 | 0.0455 | 95.8 |
| CDX4 (GeneID 1046) | 4 | -0.233 | 71.2 |
| PMS2 (GeneID 5395) | 1 | -0.166 | 105 |
| PMS2 (GeneID 5395) | 2 | -0.231 | 92.2 |
| PMS2 (GeneID 5395) | 3 | -0.692 | 61.2 |
| PMS2 (GeneID 5395) | 4 | -0.525 | 73.7 |
| SLC38A2 (GeneID 54407) | 1 | -0.268 | 113 |
| SLC38A2 (GeneID 54407) | 2 | -0.727 | 88.4 |
| SLC38A2 (GeneID 54407) | 3 | 0.15 | 49.5 |
| SLC38A2 (GeneID 54407) | 4 | -0.319 | 110 |
| PKP1 (GeneID 5317) | 1 | -0.00335 | 84.5 |
| PKP1 (GeneID 5317) | 2 | -0.349 | 71.1 |
| PKP1 (GeneID 5317) | 3 | -0.243 | 72.9 |
| PKP1 (GeneID 5317) | 4 | -0.559 | 90.4 |
| MXI1 (GeneID 4601) | 1 | -0.229 | 83.1 |
| MXI1 (GeneID 4601) | 2 | -0.104 | 96.8 |
| MXI1 (GeneID 4601) | 3 | -0.477 | 70.6 |
| MXI1 (GeneID 4601) | 4 | 0.114 | 14 |
| CEP55 (GeneID 55165) | 1 | 0.195 | 71.3 |
| CEP55 (GeneID 55165) | 2 | -0.0832 | 81.2 |
| CEP55 (GeneID 55165) | 3 | 0.0413 | 93.4 |
| CEP55 (GeneID 55165) | 4 | 0.099 | 103 |
| AKR7L (GeneID 246181) | 1 | -0.11 | 108 |
| AKR7L (GeneID 246181) | 2 | -0.215 | 119 |
| AKR7L (GeneID 246181) | 3 | -0.0811 | 101 |
| AKR7L (GeneID 246181) | 4 | -0.57 | 31 |
| GNRH2 (GeneID 2797) | 1 | -0.387 | 72.1 |
| GNRH2 (GeneID 2797) | 2 | 0.161 | 84.4 |
| GNRH2 (GeneID 2797) | 3 | 1.07 | 38.7 |
| GNRH2 (GeneID 2797) | 4 | -0.11 | 60.4 |
| FTL (GeneID 2512) | 1 | -0.23 | 61.1 |
| FTL (GeneID 2512) | 2 | 0.199 | 47.3 |
| FTL (GeneID 2512) | 3 | -0.189 | 99.7 |
| FTL (GeneID 2512) | 4 | -0.973 | 4.82 |
| HHEX (GeneID 3087) | 1 | 0.136 | 93.4 |
| HHEX (GeneID 3087) | 2 | 0.362 | 39.5 |
| HHEX (GeneID 3087) | 3 | 0.051 | 99 |
| HHEX (GeneID 3087) | 4 | 0.00681 | 70.5 |
| TMEM171 (GeneID 134285) | 1 | -0.455 | 77.1 |
| TMEM171 (GeneID 134285) | 2 | -0.303 | 53.2 |
| TMEM171 (GeneID 134285) | 3 | 0.768 | 16.5 |
| TMEM171 (GeneID 134285) | 4 | 0.0546 | 82.7 |
| NME3 (GeneID 4832) | 1 | -0.359 | 82.6 |
| NME3 (GeneID 4832) | 2 | -0.0994 | 78.6 |
| NME3 (GeneID 4832) | 3 | -0.00965 | 35.4 |
| NME3 (GeneID 4832) | 4 | 0.165 | 20.5 |
| TAS2R16 (GeneID 50833) | 1 | 0.217 | 70.7 |
| TAS2R16 (GeneID 50833) | 2 | 0.0276 | 92.5 |
| TAS2R16 (GeneID 50833) | 3 | -0.394 | 83 |
| TAS2R16 (GeneID 50833) | 4 | -0.413 | 46.8 |
| OR10J1 (GeneID 26476) | 1 | 0.561 | 30 |
| OR10J1 (GeneID 26476) | 2 | -0.481 | 98.7 |
| OR10J1 (GeneID 26476) | 3 | -0.0218 | 104 |
| OR10J1 (GeneID 26476) | 4 | -0.677 | 89.3 |

Copied from the list.
For “log2 vehicle/camptothecin viability”, SOCS2 (GeneID 8835) #2 shows -0.352
Entry for GANAB (GeneID 23193) #2 in “viability with camptothecin (% of control)”: 66.5
Result for TAS2R16 (GeneID 50833) #4 under “viability with camptothecin (% of control)”: 46.8
Under “viability with camptothecin (% of control)”, ETNPPL (GeneID 64850) #1 reads 100
For “log2 vehicle/camptothecin viability”, GRK1 (GeneID 6011) #2 shows -0.191
Result of NME3 (GeneID 4832) #3 in “viability with camptothecin (% of control)”: 35.4
